This passage reports binding results from patent publication US20190062420A1.

No constants are given. Whether binding was seen depends on the method and setting. A result given as binding can be weak or reduced; the word gives no strength.

To fix the notation:
B1: OX40SF2IgG2sigma_R2BS29_LC-C (bispecific antibody)
heavy: QVQLVQSGAEVKKPGSSVKVSCKASGYTFKDYTMHWVRQAPGQGLEWIGGIYPNNGGSTYNQNFKDRVTLTADKSTSTAYMELSSLRSEDTAVYYCARMGYHGPHLDFDVWGQGTTVTVSSASTKGPSVFPLAPCSRSTSESTAALGCLVKDYFPEPVTVSWNSGALTSGVHTFPAVLQSSGLYSLSSVVTVPSSNFGTQTYTCNVDHKPSNTKVDKTVERKCCVECPPCPAPPAAASSVFLFPPKPKDTLMISRTPEVTCVVVDVSAEDPEVQFNWYVDGVEVHNAKTKPREEQFNSTFRVVSVLTVLHQDWLNGKEYKCKVSNKGLPSSIEKTISKTKGQPREPQVYTLPPSREEMTKNQVSLTCLVKGFYPSDIAVEWESNGQPENNYKTTPPMLDSDGSFFLYSKLTVDKSRWQQGNVFSCSVMHEALHNHYTQKSLSLSPGK
light: DIQMTQSPSSLSASVGDRVTITCKASQDVGAAVAWYQQKPGKAPKLLIYWASTRHTGVPSRFSGSGSGTDFTLTISSLQPEDFATYYCQQYINYPLTFGGGTKVEIKRTVAAPSVFIFPPSDEQLKSGTASVVCLLNNFYPREAKVQWKVDNALQSGNSQESVTEQDSKDSTYSLSSTLTLSKADYEKHKVYACEVTHQGLSSPVTKSFNRGECGGGGSGGGGSGGGGSGGGGSMLPAPKNLVVSRVTEDSARLSWTAPDAAFDSFPIYYWEYRVGGEAIVLTVPGSERSYDLTGLKPGTEYFVYINGVKGGEESRPLSAIFTT
B2: OX40SF2IgG2sigma_R2BS29_LC-N (bispecific antibody)
heavy: QVQLVQSGAEVKKPGSSVKVSCKASGYTFKDYTMHWVRQAPGQGLEWIGGIYPNNGGSTYNQNFKDRVTLTADKSTSTAYMELSSLRSEDTAVYYCARMGYHGPHLDFDVWGQGTTVTVSSASTKGPSVFPLAPCSRSTSESTAALGCLVKDYFPEPVTVSWNSGALTSGVHTFPAVLQSSGLYSLSSVVTVPSSNFGTQTYTCNVDHKPSNTKVDKTVERKCCVECPPCPAPPAAASSVFLFPPKPKDTLMISRTPEVTCVVVDVSAEDPEVQFNWYVDGVEVHNAKTKPREEQFNSTFRVVSVLTVLHQDWLNGKEYKCKVSNKGLPSSIEKTISKTKGQPREPQVYTLPPSREEMTKNQVSLTCLVKGFYPSDIAVEWESNGQPENNYKTTPPMLDSDGSFFLYSKLTVDKSRWQQGNVFSCSVMHEALHNHYTQKSLSLSPGK
light: LPAPKNLVVSRVTEDSARLSWTAPDAAFDSFPIYYWEYRVGGEAIVLTVPGSERSYDLTGLKPGTEYFVYINGVKGGEESRPLSAIFTTGGGGSGGGGSGGGGSGGGGSDIQMTQSPSSLSASVGDRVTITCKASQDVGAAVAWYQQKPGKAPKLLIYWASTRHTGVPSRFSGSGSGTDFTLTISSLQPEDFATYYCQQYINYPLTFGGGTKVEIKRTVAAPSVFIFPPSDEQLKSGTASVVCLLNNFYPREAKVQWKVDNALQSGNSQESVTEQDSKDSTYSLSSTLTLSKADYEKHKVYACEVTHQGLSSPVTKSFNRGEC
B3: OX40SF2IgG2sigma_R2BS29_HC-C (bispecific antibody)
heavy: QVQLVQSGAEVKKPGSSVKVSCKASGYTFKDYTMHWVRQAPGQGLEWIGGIYPNNGGSTYNQNFKDRVTLTADKSTSTAYMELSSLRSEDTAVYYCARMGYHGPHLDFDVWGQGTTVTVSSASTKGPSVFPLAPCSRSTSESTAALGCLVKDYFPEPVTVSWNSGALTSGVHTFPAVLQSSGLYSLSSVVTVPSSNFGTQTYTCNVDHKPSNTKVDKTVERKCCVECPPCPAPPAAASSVFLFPPKPKDTLMISRTPEVTCVVVDVSAEDPEVQFNWYVDGVEVHNAKTKPREEQFNSTFRVVSVLTVLHQDWLNGKEYKCKVSNKGLPSSIEKTISKTKGQPREPQVYTLPPSREEMTKNQVSLTCLVKGFYPSDIAVEWESNGQPENNYKTTPPMLDSDGSFFLYSKLTVDKSRWQQGNVFSCSVMHEALHNHYTQKSLSLSPGKGGGGGSGGGGSGGGGSGGGGSLPAPKNLVVSRVTEDSARLSWTAPDAAFDSFPIYYWEYRVGGEAIVLTVPGSERSYDLTGLKPGTEYFVYINGVKGGEESRPLSAIFTT
light: DIQMTQSPSSLSASVGDRVTITCKASQDVGAAVAWYQQKPGKAPKLLIYWASTRHTGVPSRFSGSGSGTDFTLTISSLQPEDFATYYCQQYINYPLTFGGGTKVEIKRTVAAPSVFIFPPSDEQLKSGTASVVCLLNNFYPREAKVQWKVDNALQSGNSQESVTEQDSKDSTYSLSSTLTLSKADYEKHKVYACEVTHQGLSSPVTKSFNRGEC
B4: OX40SF2IgG2sigma_R2BS29_HC-N (bispecific antibody)
heavy: LPAPKNLVVSRVTEDSARLSWTAPDAAFDSFPIYYWEYRVGGEAIVLTVPGSERSYDLTGLKPGTEYFVYINGVKGGEESRPLSAIFTTGGGGSGGGGSGGGGSGGGGSQVQLVQSGAEVKKPGSSVKVSCKASGYTFKDYTMHWVRQAPGQGLEWIGGIYPNNGGSTYNQNFKDRVTLTADKSTSTAYMELSSLRSEDTAVYYCARMGYHGPHLDFDVWGQGTTVTVSSASTKGPSVFPLAPCSRSTSESTAALGCLVKDYFPEPVTVSWNSGALTSGVHTFPAVLQSSGLYSLSSVVTVPSSNFGTQTYTCNVDHKPSNTKVDKTVERKCCVECPPCPAPPAAASSVFLFPPKPKDTLMISRTPEVTCVVVDVSAEDPEVQFNWYVDGVEVHNAKTKPREEQFNSTFRVVSVLTVLHQDWLNGKEYKCKVSNKGLPSSIEKTISKTKGQPREPQVYTLPPSREEMTKNQVSLTCLVKGFYPSDIAVEWESNGQPENNYKTTPPMLDSDGSFFLYSKLTVDKSRWQQGNVFSCSVMHEALHNHYTQKSLSLSPGK
light: DIQMTQSPSSLSASVGDRVTITCKASQDVGAAVAWYQQKPGKAPKLLIYWASTRHTGVPSRFSGSGSGTDFTLTISSLQPEDFATYYCQQYINYPLTFGGGTKVEIKRTVAAPSVFIFPPSDEQLKSGTASVVCLLNNFYPREAKVQWKVDNALQSGNSQESVTEQDSKDSTYSLSSTLTLSKADYEKHKVYACEVTHQGLSSPVTKSFNRGEC

This assay has as its target FcγRIIA protein (human). Description: ELISA; FcγRIIA protein coated on plate, anti-human IgG-HRP detection. (In general: An ELISA detects its analyte on a solid surface through an enzyme-linked reagent.)
On to B1, for which the binding entry was “binds”.

B2: the binding entry is listed as “binds”.

As to B3, the binding result is reported as “binds”.

As to B4, the binding result is listed as “binds”.
